Measured values taken from publication PMC6433294, “Differential thermal stability, conformational stability and unfolding behavior of Eis proteins from Mycobacterium smegmatis and Mycobacterium tuberculosis” (PLoS ONE, 2019).
No constants are given. Whether binding was seen depends on the method and setting.

Target: M. smegmatis Eis (MSMEG_3513) protein (M. smegmatis) (UniProt A0QY29)
Assay: condition: only in SDS (loading dye with 1% SDS, SDS-PAGE), unboiled; SDS-PAGE of unboiled sample; 10 ug unboiled protein on 8% SDS-PAGE, loading dye with 1% SDS, 0.125 M Tris pH 6.8, 40% glycerol; Coomassie stain; both purified

B1: M. smegmatis Eis (MSMEG_3513) protein (enzyme, UniProt A0QY29 1-402, looked up)
chain: MITPRTLHTITDDDWTRIALLARFAFGDIEPEQTQAAWRSMVPEDATVVVPDETDDAFVGQSLYLDMQLTVPGGEVLPVAGISFVAVAPTHRRRGVLRAMYTELHDRIARAGYPLAVLTASEGGIYGRFGYGVATIEQHVSVDRRLAQFHPAAPDPGGVRMLVPADHRDGLADIYDRWRRRTPGGLVRPDALWDDLLADRPESRRGGGELFAFGHQDGYALYRVDRGPDGRRSAHVVELTAVTADAHAALWRALLGLDLIDRVSIGTHPHDPLPYLLTDPRQAQVTASADDLWIRIMNVPAALEARRYQADLDVVLDVADGFRSDGGRFALQISGGRARCTTTDAPADIEIDLDVLGGLYLGAHRVDGFAAANRLRSKDSELLQQFGAAFAGDMPAELGYGF
notes: also called MsEis; Enhanced Intracellular Survival protein from M. smegmatis
**Q.** Which binding does the source give for B1 here?
**A.** Its binding is “no binding”.
